Measured values: PubChem BioAssay AID256 (DTP/NCI, 2004)
The list does not hold the whole screen: it gathers tests that were run many times, whatever their T/C, doses with no T/C, and many T/C values between a quarter and a half above the control. Other doses and runs of a compound stand elsewhere. T/C is the treated group as % of the vehicle group. Some entries give survivors of the animals treated and no T/C: the source files T/C as zero there, which appears to mark a toxic dose or a test without result, not a measured value. Some doses without a T/C left all or most animals alive at the check, yet need not have been tolerated: survival well below the control is almost never listed, so the zero probably covers shortened survival too. Counts of survivors are from the toxicity check (mostly the fifth day) where no day follows; animals may have died later. Schedule codes are those of the source, read here as Q, the interval in days (D) or hours (H), X, the number of doses. Some entries hold several experiments; the results are listed from low to high. Where survival is the endpoint, the PubChem record calls one and a half times the control and up active, and a quarter to a half above the control has no call in these data; cut-offs in other NCI protocols can differ. Brackets with × count equal records among those shown.

Tested on: CD2F1 mice, L1210 leukemia ip, survival T/C
Assay: NCI In Vivo Anticancer Drug Screen. Data for tumor model L1210 Leukemia (intraperitoneal) in CD2F1 (CDF1) mice
Details: higher T/C = longer survival
Outline: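 Implant tumor; dose compound or vehicle; measure endpoint in both groups; report treated divided by control.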

[1] = T/C endpoint: mean survival time, dose: 100.0 mg/kg/injection, schedule: Q01DX001 (ip), vehicle: saline with Tween-80
[2] = T/C endpoint: mean survival time, dose: 400.0 mg/kg/injection, schedule: Q01DX009 (ip), vehicle: saline with Tween-80
[3] = T/C endpoint: mean survival time, dose: 400.0 mg/kg/injection, schedule: Q01DX001 (ip), vehicle: saline with Tween-80
[4] = T/C endpoint: mean survival time, dose: 400.0 mg/kg/injection, schedule: Q04DX003 (ip), vehicle: saline with Tween-80
[5] = T/C endpoint: mean survival time, dose: 100.0 mg/kg/injection, schedule: Q01DX009 (ip), vehicle: Klucel (hydroxypropylcellulose) (HPC)
[6] = T/C endpoint: mean survival time, dose: 200.0 mg/kg/injection, schedule: Q01DX009 (ip), vehicle: Klucel (hydroxypropylcellulose) (HPC)
[7] = T/C endpoint: mean survival time, dose: 400.0 mg/kg/injection, schedule: Q01DX009 (ip), vehicle: Klucel (hydroxypropylcellulose) (HPC)
[8] = T/C endpoint: mean survival time, dose: 400.0 mg/kg/injection, schedule: Q04DX003 (ip), vehicle: saline
[9] = T/C endpoint: mean survival time, dose: 200.0 mg/kg/injection, schedule: Q01DX001 (ip), vehicle: saline with Tween-80
[10] = T/C endpoint: mean survival time, dose: 100.0 mg/kg/injection, schedule: Q04DX003 (ip), vehicle: saline
[11] = T/C endpoint: mean survival time, dose: 200.0 mg/kg/injection, schedule: Q04DX003 (ip), vehicle: saline

## Cc1cc(N(C)C)c(C(C)C)cc1O (tested in a mixture with another compound)
T/C endpoint: mean survival time, dose: 0.5 mg/kg/injection, schedule: Q01DX001 (ip), vehicle: saline
  survivor count: 0 of 6
T/C endpoint: mean survival time, dose: 1.0 mg/kg/injection, schedule: Q01DX001 (ip), vehicle: saline
  survivor count: 0 of 6
T/C endpoint: mean survival time, dose: 2.0 mg/kg/injection, schedule: Q01DX001 (ip), vehicle: saline
  survivor count: 0 of 6
T/C endpoint: mean survival time, dose: 3.75 mg/kg/injection, schedule: Q01DX001 (ip), vehicle: saline
  survivor count: 0 of 6
T/C endpoint: mean survival time, dose: 7.5 mg/kg/injection, schedule: Q01DX001 (ip), vehicle: saline
  survivor count: 0 of 6
T/C endpoint: mean survival time, dose: 15.0 mg/kg/injection, schedule: Q01DX001 (ip), vehicle: saline
  survivor count: 0 of 6
T/C endpoint: mean survival time, dose: 18.8 mg/kg/injection, schedule: Q01DX001 (ip), vehicle: saline
  survivor count: 0 of 6
T/C endpoint: mean survival time, dose: 37.5 mg/kg/injection, schedule: Q01DX001 (ip), vehicle: saline
  survivor count: 0 of 6
T/C endpoint: mean survival time, dose: 75.0 mg/kg/injection, schedule: Q01DX001 (ip), vehicle: saline
  survivor count: 0 of 6
T/C endpoint: mean survival time, dose: 250.0 micrograms/kg/injection, schedule: Q01DX001 (ip), vehicle: saline
  survivor count: 0 of 6

## O=C(O)c1ccc(NC(=S)NC(=O)c2cccc(Br)c2)cc1
[1]
  survivor count: 3 of 3
[2]
  survivor count: 5 of 6

## Nc1ccc(-c2ccc(C(=O)O)cc2)cc1
[3]
  survivor count: 0 of 3 and 0 of 6
T/C endpoint: mean survival time, dose: 400.0 mg/kg/injection, schedule: Q04DX002 (ip), vehicle: saline with Tween-80
  survivor count: 0 of 3

## CC(C)(C)OC(=O)NC(Cc1c[nH]c2ccccc12)C(=O)ON1C(=O)CCC1=O (centres undefined)
[4]
  survivor count: 2 of 6

## C1=CCOCOC1
T/C endpoint: mean survival time, dose: 200.0 mg/kg/injection, schedule: Q01DX009 (ip), vehicle: saline with Tween-80
  survivor count: 2 of 6
[2]
  survivor count: 0 of 6
[4]
  survivor count: 1 of 6

## Cc1cn(C2CC3O[P@@](=S)(Nc4ccccc4)OCC3O2)c(=O)[nH]c1=O (some centres undefined)
T/C endpoint: median survival time, dose: 92.0 mg/kg/injection, schedule: Q01DX005 (ip), vehicle: saline with Tween-80
  survivor count: 5 of 6

## N\C([S-])=N/N=C\C(=N/N=C(\N)[S-])C(O)C(O)C(O)CO.[Fe+2] (centres undefined)
T/C endpoint: mean survival time, dose: 400.0 mg/kg/injection, schedule: Q01DX009 (ip), vehicle: saline sonified
  survivor count: 0 of 6

## CC1c2ccccc2CC(CCN(C)C)c2ccccc21 (centres undefined)
T/C endpoint: median survival time, dose: 100.0 mg/kg/injection, schedule: Q01DX009 (ip), vehicle: saline with Tween-80
  survivor count: 0 of 6

## CN(C)N=Nc1ccc(/C=C/C(=O)O)cc1
T/C endpoint: mean survival time, dose: 50.0 mg/kg/injection, schedule: Q01DX009 (ip), vehicle: Klucel (hydroxypropylcellulose) (HPC)
  T/C: 127 % of control (2×)
[5]
  T/C: 142 % of control
[6]
  T/C: 142 % of control
[7]
  survivor count: 4 of 6

## CCC(C)C(=O)CN(C)C (centres undefined)
[8]
  survivor count: 0 of 4

## COc1ccc(-c2csc(=[N+]3CCCCC3)s2)cc1
T/C endpoint: mean survival time, dose: 50.0 mg/kg/injection, schedule: Q01DX009 (ip), vehicle: water
  survivor count: 0 of 10 and 0 of 6

## NC(N)=N/N=C/c1ccc(-c2ccccc2)cc1
[1]
  survivor count: 0 of 6
[9]
  survivor count: 0 of 6
[3]
  survivor count: 0 of 6

## O=c1cc(CCl)oc(Br)c1O
T/C endpoint: mean survival time, dose: 200.0 mg/kg/injection, schedule: Q04DX002 (ip), vehicle: saline with Tween-80
  survivor count: 1 of 3

## OCc1cc(Cl)cc(Cl)c1O
T/C endpoint: mean survival time, dose: 400.0 mg/kg/injection, schedule: Q01DX009 (ip), vehicle: other
  survivor count: 1 of 6
T/C endpoint: mean survival time, dose: 400.0 mg/kg/injection, schedule: Q04DX003 (ip), vehicle: other
  survivor count: 3 of 6

## Nc1ccc(CCCCc2ccc(Cl)cc2Cl)cc1
[4]
  survivor count: 1 of 6

## O=S(=O)(O)Sc1ccccc1
[10]
  survivor count: 2 of 6
[11]
  survivor count: 0 of 6
[8]
  survivor count: 0 of 6

## O=S(=O)(O)O.[N-]=C(N)/N=C(\[NH-])N.[N-]=C(N)/N=C(\[NH-])N.[N-]=C(N)NC(=[N-])N.[Rh+3]
T/C endpoint: mean survival time, dose: 50.0 mg/kg/injection, schedule: Q04DX003 (ip), vehicle: saline
  survivor count: 5 of 6
[10]
  survivor count: 0 of 6
[11]
  survivor count: 0 of 6
[8]
  survivor count: 0 of 6

## Cc1c([C@H](C)[C@@H]2NC[C@@H](C)C[C@H]2O)ccc2c1C[C@H]1[C@H]2CC=C2C[C@@H](O)CC[C@@]21C
T/C endpoint: mean survival time, dose: 10.0 mg/kg/injection, schedule: Q01DX009 (ip), vehicle: Klucel (hydroxypropylcellulose) (HPC)
  survivor count: 0 of 6
T/C endpoint: mean survival time, dose: 10.0 mg/kg/injection, schedule: Q04DX003 (ip), vehicle: Klucel (hydroxypropylcellulose) (HPC)
  survivor count: 0 of 6
T/C endpoint: mean survival time, dose: 20.0 mg/kg/injection, schedule: Q04DX003 (ip), vehicle: Klucel (hydroxypropylcellulose) (HPC)
  survivor count: 0 of 6
T/C endpoint: mean survival time, dose: 40.0 mg/kg/injection, schedule: Q04DX003 (ip), vehicle: Klucel (hydroxypropylcellulose) (HPC)
  survivor count: 0 of 6
T/C endpoint: mean survival time, dose: 50.0 mg/kg/injection, schedule: Q01DX001 (ip), vehicle: saline with Tween-80
  survivor count: 0 of 6
[1]
  survivor count: 0 of 6
T/C endpoint: mean survival time, dose: 100.0 mg/kg/injection, schedule: Q04DX003 (ip), vehicle: Klucel (hydroxypropylcellulose) (HPC)
  survivor count: 0 of 6
[9]
  survivor count: 0 of 6
T/C endpoint: mean survival time, dose: 200.0 mg/kg/injection, schedule: Q04DX003 (ip), vehicle: Klucel (hydroxypropylcellulose) (HPC)
  survivor count: 0 of 6
T/C endpoint: mean survival time, dose: 400.0 mg/kg/injection, schedule: Q04DX003 (ip), vehicle: Klucel (hydroxypropylcellulose) (HPC)
  survivor count: 0 of 6

## CCCCCC#CC(=O)OC
[4]
  survivor count: 0 of 6

## Nc1ccc2oc(=O)c(C(=O)O)cc2c1
[3]
  survivor count: 1 of 3

## CNNC1CCC2C3CCc4cc(O)ccc4C3CCC12C (centres undefined)
[5]
  survivor count: 0 of 3
[6]
  survivor count: 0 of 3
[7]
  survivor count: 0 of 3

## Cc1c2cnccc2c(C)c2c1c1ccccc1n2CCCCCCNCc1ccccc1
T/C endpoint: mean survival time, dose: 100.0 mg/kg/injection, schedule: Q04DX003 (ip), vehicle: saline with Tween-80
  survivor count: 6 of 6
T/C endpoint: mean survival time, dose: 200.0 mg/kg/injection, schedule: Q04DX003 (ip), vehicle: saline with Tween-80
  survivor count: 6 of 6
[4]
  survivor count: 2 of 6
